Reference: publication PMC6146035
These are yes or no findings as the source states them, for the method shown. Binding seen in cells or lysates may run through a third protein. Some entries that bind do so weakly or less than the wild type.

Protein sequences, listed by entry. Tags and fused reporters are not part of them.
UniProt P19139: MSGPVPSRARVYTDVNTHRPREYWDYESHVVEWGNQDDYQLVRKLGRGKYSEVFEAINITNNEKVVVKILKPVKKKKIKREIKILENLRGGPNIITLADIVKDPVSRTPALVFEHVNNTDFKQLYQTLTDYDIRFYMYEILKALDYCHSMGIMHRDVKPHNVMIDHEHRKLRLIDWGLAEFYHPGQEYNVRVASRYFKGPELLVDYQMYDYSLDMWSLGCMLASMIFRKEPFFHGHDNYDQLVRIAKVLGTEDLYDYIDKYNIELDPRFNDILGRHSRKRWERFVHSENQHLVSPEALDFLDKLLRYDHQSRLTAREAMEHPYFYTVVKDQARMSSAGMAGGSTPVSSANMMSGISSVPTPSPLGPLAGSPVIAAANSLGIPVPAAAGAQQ
UniProt P10361: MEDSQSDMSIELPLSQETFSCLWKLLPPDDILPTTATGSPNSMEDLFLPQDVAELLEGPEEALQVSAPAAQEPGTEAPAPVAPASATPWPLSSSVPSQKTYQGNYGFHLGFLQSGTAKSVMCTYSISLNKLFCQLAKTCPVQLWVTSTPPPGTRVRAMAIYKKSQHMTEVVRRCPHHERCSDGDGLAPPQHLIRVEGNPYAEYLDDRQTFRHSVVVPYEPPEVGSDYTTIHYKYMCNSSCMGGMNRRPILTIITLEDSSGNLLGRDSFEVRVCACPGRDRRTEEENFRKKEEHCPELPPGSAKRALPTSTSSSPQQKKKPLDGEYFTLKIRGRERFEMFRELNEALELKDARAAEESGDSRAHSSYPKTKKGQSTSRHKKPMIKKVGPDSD

Molecular target: Casein kinase 2 catalytic subunit alpha (CK2α) (rat (endogenous in cultured rat oligodendrocytes)) (UniProt P19139)
Assay: co-IP; lysates (RIPA buffer) of cultured rat oligodendrocytes, untreated control or treated with 10 uM AMPA plus 100 uM CTZ for 30 min and collected 10, 30 and 60 min later; pre-cleared with Sepharose 6B; IP overnight at 4°C with rabbit anti-CK2α on Protein A-Sepharose; blot with mouse anti-p53; band quantified as % of control

binding: binds
Substance: tumor suppressor p53 (from UniProt P10361 1-391)
